# Library screen at single concentrations

Each number is a percent effect as filed.
The controls that fix the scale are not given in the record; negative values are as filed.
Compounds were drawn at random from those tested, without regard to their results.
Two or more numbers in one place are separate tests of the same structure; such repeats can differ widely.

A: 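Growth of Mycobacterium tuberculosis over 3 days (7H9 medium with glucose and tyloxapol); the read-out is not stated. Concentration: 50 µM. Higher reads as more growth inhibition (inferred: compounds with an IC50 in retests scored well above the rest). About 69,000 compounds were tested under these conditions; 1.1% (about 760) showed 50% or more at least once.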
B: 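Whole-cell growth test on Mycobacterium tuberculosis, read after 4 days in a medium based on cholesterol and the lipid DPPC; the read-out is not stated. Concentration: 50 µM. Direction is inferred from retests: higher values go with more growth inhibition. Size under these conditions: about 69,000 compounds, about 370 of them at 50% or above in at least one test.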

SMILES: Cc1ccccc1C(C(=O)NCCSC(C)C)N(C)C (stereo not drawn)
A: -3.183 & 0.6505
B: -1.345

SMILES: COc1cc(F)ccc1C(C(=O)O)N(C)CCN1CCCC1 (stereo not drawn)
A: -37.52
B: -5.88

SMILES: c1nc2onc(C3CC3)c2cc1-c1nnc(C2CC2)o1
A: 3.037 & -12.16
B: -22.77

SMILES: CC(C)(C)n1cc(C#N)cc1NC(=O)CCS(=O)(=O)C1CCCC1
A: -14.36
B: 1.467 & -11.65

SMILES: Cc1nn(CCC(=O)NC2CCCOC2)c(C)c1C (stereo not drawn)
A: -7.253
B: -13.19 & -10.78

SMILES: O=C(C1CCCCC1)N1CCC(n2nc(-c3ccco3)ccc2=O)CC1
A: -6.881
B: -6.282

SMILES: CCNc1ncc(C(=O)N2CCc3c(nc(C)nc3N(C)C)C2)cn1
A: -3.633
B: 7.234

SMILES: CSc1[nH]nc(NC(=O)c2ccccc2)c1C#N
A: -2.022
B: -24.52

SMILES: Cc1noc(C)c1CCC(=O)NCC1(O)CCN(c2ccccn2)C1 (stereo not drawn)
A: -9.673
B: 5.291

SMILES: [H][C@@]12CCN(S(=O)(=O)c3ccccc3)[C@]1([H])CC[C@@H](c1nc(C)no1)O2
A: 4.702
B: 4.867

SMILES: O=C(O)C(F)(F)F.O=C(O)C(F)(F)F.[H][C@@]12OCCN(Cc3nccs3)[C@@]1([H])CC[C@H]2OCCN1CCCC1
A: -35.37
B: -24.61

SMILES: O=C1CCC2(CCCN(Cc3nnc(C4CC4)o3)C2)CN1CCO (stereo not drawn)
A: -4.271
B: -0.3401

SMILES: Cn1ccnc1CN1CCC2(CC1)CN(Cc1ccccc1)C(=O)CO2.O=C(O)C(F)(F)F
A: -3.254 & -1.51
B: -2.179 & -17.13

SMILES: Cn1cc(CNCCc2cccnc2)c(-c2cccnc2)n1
A: -10.11
B: -17.51

SMILES: CSc1cccc(CN(C)C(=O)C2CC(=O)N(CCN(C)C)C2)c1 (stereo not drawn)
A: -8.605
B: -7.708

SMILES: COCC[C@]1(O)CCN(CC(=O)NCc2ccccn2)C[C@H]1C
A: -6.784
B: -12.87

SMILES: COc1cccc2c(=O)n(Cc3ccnc(C)c3)cnc12
A: -11.69
B: 3.043

SMILES: CCc1ncc(C(=O)N(CCOC)Cc2nccs2)cn1
A: -4.645
B: -5.169

SMILES: COc1ccc2c(c1)CCN(Cc1cscn1)CC2
A: 4.914
B: -35.49

SMILES: Cc1[nH]ncc1C(=O)NCC(CO)Cc1ccc(Cl)cc1 (stereo not drawn)
A: -5.282 & 0.6228
B: 11.65

SMILES: [H][C@@]12CC[C@H](Oc3cccc(F)c3)[C@]1([H])CN(C(=O)Cn1ccnc1)C2
A: 24.39
B: -3.104

SMILES: CCc1nc(CN2CCCN(C(=O)COC(C)C)CC2)cs1
A: -9.791
B: -1.264

SMILES: Cc1ccc(C2CN(c3nnc(C(F)F)s3)CCO2)c(C)c1 (stereo not drawn)
A: 41.57
B: 12.31

SMILES: Cc1cnc(N2CCN(C)CC2)nc1-c1ccnn1C
A: 11.22 & -1.718
B: 12.33

SMILES: Cc1ccc(CN2CCCC3(CCN(Cc4ccoc4)CC3)C2)cc1.O=C(O)C(F)(F)F.O=C(O)C(F)(F)F
A: 8.86
B: 18.25

SMILES: CC(C)c1cc(CN2CCC(N)CC2)on1
A: -18.12
B: -25.01

The first 3 entries again:

SMILES,A,B
Cc1ccccc1C(C(=O)NCCSC(C)C)N(C)C (stereo not drawn),-3.183 & 0.6505,-1.345
COc1cc(F)ccc1C(C(=O)O)N(C)CCN1CCCC1 (stereo not drawn),-37.52,-5.88
c1nc2onc(C3CC3)c2cc1-c1nnc(C2CC2)o1,3.037 & -12.16,-22.77

The values are deposited in ChEMBL (CHEMBL3988442, “University of Dundee, Small-Polar-MMV Screening Library” (2021)).